Test results as given in the supplement of paper PMC9233669.
This sample is rich in variants without activity.

Key:
[1] = test system: biotinyl-Ile-oxazolone; assay: self-aminoacylation, catalytic enhancement (BIO) (fold over background); higher = more active; k-Seq, kA / k0A0; sequences stand for … in GGGAAUGGAUCCACAUCUACGAAUUC…UUCACUGCAGACUUGACGAAGCUG
In short: (§1)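 Catalytic enhancement equals the median kA over the uncatalyzed rate, the latter read from the low-activity peak of a bimodal Gaussian fit. Values of kA came from fitting each sequence's fraction reacted to a pseudo-first-order model, with 1000 bootstraps. Reacted RNA was captured with streptavidin and quantified by triplicate qPCR and Illumina sequencing after 90 minutes at room temperature with 2–1250 μM biotinyl-aminoacyl-oxazolone and 0.43 μM mutagenized RNA pools bearing a 21-nt variable region.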

[2] = test system: biotinyl-Val-oxazolone; assay: self-aminoacylation, catalytic enhancement (BVO) (fold over background); higher = more active; k-Seq, kA / k0A0; sequences stand for … in GGGAAUGGAUCCACAUCUACGAAUUC…UUCACUGCAGACUUGACGAAGCUG
In short: as §1

[3] = test system: biotinyl-Phe-oxazolone; assay: self-aminoacylation, catalytic enhancement (BFO) (fold over background); higher = more active; k-Seq, kA / k0A0; sequences stand for … in GGGAAUGGAUCCACAUCUACGAAUUC…UUCACUGCAGACUUGACGAAGCUG
In short: as §1

[4] = test system: biotinyl-Met-oxazolone; assay: self-aminoacylation, catalytic enhancement (BMO) (fold over background); higher = more active; k-Seq, kA / k0A0; sequences stand for … in GGGAAUGGAUCCACAUCUACGAAUUC…UUCACUGCAGACUUGACGAAGCUG
In short: as §1

[5] = test system: biotinyl-Leu-oxazolone; assay: self-aminoacylation, catalytic enhancement (BLO) (fold over background); higher = more active; k-Seq, kA / k0A0; sequences stand for … in GGGAAUGGAUCCACAUCUACGAAUUC…UUCACUGCAGACUUGACGAAGCUG
In short: as §1

[6] = test system: biotinyl-Trp-oxazolone; assay: self-aminoacylation, catalytic enhancement (BWO) (fold over background); higher = more active; k-Seq, kA / k0A0; sequences stand for … in GGGAAUGGAUCCACAUCUACGAAUUC…UUCACUGCAGACUUGACGAAGCUG
In short: as §1

Sequence | self-aminoacylation [1] | self-aminoacylation [2] | self-aminoacylation [3] | self-aminoacylation [4] | self-aminoacylation [5] | self-aminoacylation [6]
AAGUUUGCUAAUAGUCGUAUG [Fam3.1 aminoacylation ribozyme variant] | 0.955 | 0.957 | 1.38 | 0.841 | 0.911 | 1.09
AAGUUUGCUAAUAGUCUCAAC [Fam3.1 aminoacylation ribozyme variant] | 0.579 | 0.762 | 0.907 | 0.445 | 0.502 | 0.691
AAGUUUGCUAAUAUACGCAAG [Fam3.1 aminoacylation ribozyme variant] | 0.63 | 0.629 | 0.748 | 0.652 | 0.488 | 0.591
AAGUUUGCUAAUAUUUGCAAG [Fam3.1 aminoacylation ribozyme variant] | 1.22 | 1.07 | 1.09 | 1.14 | 0.981 | 1.68
AAGUUUGCUAAUCGUAGCAAG [Fam3.1 aminoacylation ribozyme variant] | 0.739 | 0.809 | 1.02 | 0.521 | 0.728 | 0.676
AAGUUUGCUAAUGGUCGGAAG [Fam3.1 aminoacylation ribozyme variant] | 0.861 | 0.91 | 1.55 | 0.811 | 0.849 | 0.587
AAGUUUGCUAAUGGUUGCAAG [Fam3.1 aminoacylation ribozyme variant] | 0.761 | 0.723 | 1.19 | 0.664 | 0.715 | 0.963
AAGUUUGCUAAUGUUCGCAAG [Fam3.1 aminoacylation ribozyme variant] | 0.928 | 0.993 | 1.09 | 0.803 | 0.861 | 1.03
AAGUUUGCUAAUUCUCGCAAG [Fam3.1 aminoacylation ribozyme variant] | 1.26 | 0.999 | 0.747 | 1.06 | 1.08 | 2.64
AAGUUUGCUACUAGUAGCAAG [Fam3.1 aminoacylation ribozyme variant] | 0.917 | 0.962 | 0.93 | 0.972 | 0.992 | 1.18
AAGUUUGCUACUAGUGGCAAG [Fam3.1 aminoacylation ribozyme variant] | 0.62 | 0.599 | 1.2 | 0.855 | 0.636 | 0.597
AAGUUUGCUAGUAUUCGCAAG [Fam3.1 aminoacylation ribozyme variant] | 1.13 | 0.955 | 0.726 | 1.02 | 0.753 | 1.39
AAGUUUGCUAGUCGUCGCAAG [Fam3.1 aminoacylation ribozyme variant] | 0.805 | 0.942 | 0.983 | 0.942 | 1.01 | 1.17
AAGUUUGCUCAUAGUCGCAUG [Fam3.1 aminoacylation ribozyme variant] | 1.05 | 1.04 | 0.909 | 0.893 | 0.903 | 0.856
AAGUUUGCUCCUAGUCGCAAG [Fam3.1 aminoacylation ribozyme variant] | 1.03 | 0.851 | 0.939 | 0.984 | 0.802 | 1.15
AAGUUUGCUGAAAGUCGCAAG [Fam3.1 aminoacylation ribozyme variant] | 1.02 | 1.22 | 1.74 | 1.01 | 1.22 | 1.2
AAGUUUGCUGAUAGUCGCAUG [Fam3.1 aminoacylation ribozyme variant] | 1.16 | 1.03 | 1.41 | 1.21 | 1.21 | 1.51
AAGUUUGCUGAUAGUUGCAAG [Fam3.1 aminoacylation ribozyme variant] | 1.02 | 0.894 | 1.5 | 1.1 | 1 | 1.64
AAGUUUGCUUAAAGUCGCAAG [Fam3.1 aminoacylation ribozyme variant] | 0.972 | 0.897 | 1.07 | 0.754 | 0.896 | 1.1
AAGUUUGCUUACAGUCGCAAG [Fam3.1 aminoacylation ribozyme variant] | 0.869 | 0.87 | 1.02 | 0.668 | 0.544 | 0.88
AAGUUUGGUAAUAAUCGCAAG [Fam3.1 aminoacylation ribozyme variant] | 1.08 | 1.03 | 1.27 | 0.918 | 0.859 | 1.03
AAGUUUGGUAAUAGUCUCAAG [Fam3.1 aminoacylation ribozyme variant] | 1.22 | 1.07 | 1.5 | 1.16 | 0.944 | 1.65
AAGUUUGGUAAUAGUGGCAAG [Fam3.1 aminoacylation ribozyme variant] | 0.573 | 0.641 | 0.541 | 0.47 | 0.452 | 0.669
AAGUUUGUUAAGAGUCGCAAG [Fam3.1 aminoacylation ribozyme variant] | 1.07 | 0.974 | 1.27 | 1.03 | 0.825 | 1.12
AAGUUUGUUAAUAGUCGCAAC [Fam3.1 aminoacylation ribozyme variant] | 1.12 | 1.02 | 1.39 | 0.805 | 1.15 | 1.29
AAGUUUGUUAAUAGUCGGAAG [Fam3.1 aminoacylation ribozyme variant] | 0.867 | 0.837 | 0.78 | 0.837 | 0.731 | 0.67

Sequence | self-aminoacylation [1] | self-aminoacylation [2] | self-aminoacylation [3] | self-aminoacylation [4] | self-aminoacylation [5] | self-aminoacylation [6]
AAGUUUUCUAAUAGACGCAAG [Fam3.1 aminoacylation ribozyme variant] | 1.01 | 0.879 | 1.8 | 0.817 | 0.736 | 0.898
AAUCACCUAGGUAAUCGGGUG [Fam2.2 aminoacylation ribozyme variant] | 2.64 | 2.08 | 14.1 | 2.67 | 3.17 | 4.18
AAUCACCUAGGUGAUCGGGUG [Fam2.2 aminoacylation ribozyme variant] | 4.6 | 4.03 | 27.7 | 5.43 | 4.84 | 5.05
AAUCUUGCUAAUAGUCGCAAG [Fam3.1 aminoacylation ribozyme variant] | 1.57 | 1.45 | 2 | 1.16 | 1.8 | 1.75
AAUUUUGCUAAUAGUCACAAG [Fam3.1 aminoacylation ribozyme variant] | 1.6 | 1.56 | 3.77 | 1.48 | 1.31 | 1.94
ACACACUUCACGCAAUCGGUC [Fam1B.1 aminoacylation ribozyme variant] | 1.48 | 1.48 | 1.54 | 1.54 | 1.52 | 1.83
ACACACUUCAUGCAAUCGGUC [Fam1B.1 aminoacylation ribozyme variant] | 1.26 | 1.21 | 1.44 | 0.96 | 1.09 | 1.31
ACGCACCUAGGUCAUCGGGUG [Fam2.2 aminoacylation ribozyme variant] | 3.42 | 3.55 | 29 | 4.23 | 3.1 | 4.93
ACGUUUGCUAAUAGCCGCAAG [Fam3.1 aminoacylation ribozyme variant] | 1.71 | 1.52 | 1.8 | 1.72 | 1.41 | 1.28
ACGUUUGCUAAUCGUCGCAAG [Fam3.1 aminoacylation ribozyme variant] | 1.46 | 1.12 | 1.61 | 1.24 | 1.43 | 1.51
ACUACCCUGGUCAUCGAGAGA [Fam2.1 aminoacylation ribozyme variant] | 1.46 | 1.23 | 1.33 | 2.02 | 1.6 | 0.81
ACUCACCUACGUCAUCGGGUG [Fam2.2 aminoacylation ribozyme variant] | 3.98 | 4.69 | 57.3 | 6.25 | 7.79 | 6.64
ACUCACCUAGGUCCUCGGGUG [Fam2.2 aminoacylation ribozyme variant] | 5.2 | 4.46 | 37.1 | 5.36 | 5.78 | 8.03
AGCCACCUAGGUCAUCGGGUG [Fam2.2 aminoacylation ribozyme variant] | 6.24 | 6.3 | 81.6 | 7.16 | 8.17 | 10.3
AGGUUUGCUAAUAUUCGCAAG [Fam3.1 aminoacylation ribozyme variant] | 1.25 | 1 | 1.34 | 0.994 | 0.955 | 1.53
AGGUUUGCUGAUAGUCGCAAG [Fam3.1 aminoacylation ribozyme variant] | 1.49 | 1.2 | 2.52 | 1.53 | 1.83 | 1.83
AUACUUCAAACAAUCGGUCCG [Fam1A.1 aminoacylation ribozyme variant] | 0.641 | 0.586 | 1.31 | 0.729 | 0.699 | 1.27
AUACUUCGAACAAUCGGUCUG [Fam1A.1 aminoacylation ribozyme variant] | 1.29 | 1.17 | 1.74 | 1.34 | 1.16 | 1.4
AUCACCCUGGUCAUCGGGUGA [Fam2.1 aminoacylation ribozyme variant] | 5.17 | 5.27 | 33.4 | 9.05 | 9.48 | 14.1
AUCCACCUAGGUCAUGGGGUG [Fam2.2 aminoacylation ribozyme variant] | 3.54 | 3.77 | 56.5 | 5.64 | 6.65 | 5.9
AUGCCCCUAGGUCAUCGGGUG [Fam2.2 aminoacylation ribozyme variant] | 5.52 | 5.39 | 63.9 | 8.48 | 11.1 | 7.6
AUGUGUGCUAAUAGUCGCAAG [Fam3.1 aminoacylation ribozyme variant] | 1.57 | 1.37 | 3.53 | 1.2 | 1.36 | 1.95
AUGUUUGCUUAUAGUCGCAAG [Fam3.1 aminoacylation ribozyme variant] | 1.6 | 1.25 | 1.57 | 1.52 | 1.25 | 1.59
AUUAAACUGGUCAUCGAGUGA [Fam2.1 aminoacylation ribozyme variant] | 2.71 | 2.42 | 4.94 | 4.15 | 4.35 | 6.94
AUUAACCUAGGUCAUCGGGUC [Fam2.2 aminoacylation ribozyme variant] | 1.09 | 1.23 | 0.858 | 1.58 | 1.15 | 0.729
